# Data as given in the supplement of paper PMC8728848.
# Some of the results follow.
# B1: EUL D1A (Oryza sativa) (protein)
# chain: MFGFGHHHNQAPAAPSDPNQIFKIFCRANENYCLTVRDSAVVLAPVNPKDEHQHWFKDMRFSTKVKDGEGMPAFALVNKATGLAVKHSLGQSHPVKLVPFNPEYEDASVLWTESKDVGKGFRCIRMVNNTRLNLDAFHGDKDHGGVRDGTTVVLWEWCKGDNQSWKILPWGPEAHSSSPGAATACTIGGVPVHTVRVFSAAGEDYCLTVRNGTACLAPKNPRDDYQHWIKDMRHSNKIRDEEGYPAFALVNKVTGEAIKHSTGQGHPVKLVPYNPEYQDESVLWTESKDVGKGFRCIRMVNNIYLNFDAFHGDKDHGGIHDGTEIVLWKWCEGDNQRWKILPWILEQKLISEEDLNSAVDHHHHHH
# Columns and labels:
# Test in all cases: glycan array binding signal (z-score within array); higher = stronger binding
# Conditions in all cases: glycan notation: IUPAC condensed, linker removed
# [1] = biological target: Man(a1-2)Man(a1-3)[Man(a1-2)Man(a1-6)]Man(a1-6)[Man(a1-2)Man(a1-2)Man(a1-3)]Man
# How it was run: (§1)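 Columns mapping to the same glycan were averaged after glycan names were converted to IUPAC-condensed notation. The data come from 3228 arrays in the Consortium for Functional Glycomics database, limited to those with an available protein sequence. Binding is reported as a within-array Z-score averaged across arrays of one protein sequence and across linkers.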
# [2] = biological target: Man(a1-2)Man(a1-3)[Man(a1-2)Man(a1-6)]Man(a1-6)[Man(a1-2)Man(a1-2)Man(a1-3)]Man(b1-4)GlcNAc(b1-4)GlcNAc
# How it was run: as §1
# [3] = biological target: Man(a1-2)Man(a1-3)[Man(a1-6)]Man(a1-6)[Man(a1-2)Man(a1-3)]Man(b1-4)GlcNAc(b1-4)GlcNAc
# How it was run: as §1
# [4] = biological target: Man(a1-2)Man(a1-6)[Man(a1-3)]Man(a1-6)[Man(a1-2)Man(a1-2)Man(a1-3)]Man
# How it was run: as §1
# [5] = biological target: Man(a1-2)Man(a1-6)[Man(a1-3)]Man(a1-6)[Man(a1-2)Man(a1-2)Man(a1-3)]Man(b1-4)GlcNAc(b1-4)GlcNAc
# How it was run: as §1
# Man(a1-3)[Man(a1-6)]Man = biological target: Man(a1-3)[Man(a1-6)]Man
# How it was run: as §1
# [6] = biological target: Man(a1-3)[Man(a1-6)]Man(a1-6)[Man(a1-2)Man(a1-3)]Man(b1-4)GlcNAc(b1-4)GlcNAc
# How it was run: as §1
# [7] = biological target: Man(a1-3)[Man(a1-6)]Man(a1-6)[Man(a1-3)]Man
# How it was run: as §1
# [8] = biological target: Man(a1-3)[Man(a1-6)]Man(a1-6)[Man(a1-3)]Man(b1-4)GlcNAc(b1-4)GlcNAc
# How it was run: as §1
# [9] = biological target: Man(a1-3)[Man(a1-6)]Man(b1-4)GlcNAc(b1-4)GlcNAc
# How it was run: as §1
# [10] = biological target: Man(a1-3)[Man(a1-6)]Man(b1-4)GlcNAc(b1-4)[Fuc(a1-6)]GlcNAc
# How it was run: as §1
# Man(a1-6)Man = biological target: Man(a1-6)Man
# How it was run: as §1
# Man(b1-4)GlcNAc = biological target: Man(b1-4)GlcNAc
# How it was run: as §1
# MurNAc(b1-4)GlcNAc = biological target: MurNAc(b1-4)GlcNAc
# How it was run: as §1
# Neu5Ac(a2-3)Gal = biological target: Neu5Ac(a2-3)Gal
# How it was run: as §1
# [11] = biological target: Neu5Ac(a2-3)Gal(b1-3)GalNAc
# How it was run: as §1
# [12] = biological target: Neu5Ac(a2-3)Gal(b1-3)GalNAc(b1-3)Gal(a1-4)Gal(b1-4)Glc
# How it was run: as §1
# [13] = biological target: Neu5Ac(a2-3)Gal(b1-3)GalNAc(b1-4)Gal(b1-4)Glc
# How it was run: as §1
# [14] = biological target: Neu5Ac(a2-3)Gal(b1-3)GalNAc(b1-4)[Neu5Ac(a2-3)]Gal(b1-4)Glc
# How it was run: as §1
# [15] = biological target: Neu5Ac(a2-3)Gal(b1-3)GalNAc(b1-4)[Neu5Ac(a2-8)Neu5Ac(a2-3)]Gal(b1-4)Glc
# How it was run: as §1
# [16] = biological target: Neu5Ac(a2-3)Gal(b1-3)GalNAc6S
# How it was run: as §1
# [17] = biological target: Neu5Ac(a2-3)Gal(b1-3)GlcNAc
# How it was run: as §1
# [18] = biological target: Neu5Ac(a2-3)Gal(b1-3)GlcNAc(b1-2)Man
# How it was run: as §1
# [19] = biological target: Neu5Ac(a2-3)Gal(b1-3)GlcNAc(b1-2)Man(a1-3)[GlcNAc(b1-4)][Neu5Ac(a2-3)Gal(b1-3)GlcNAc(b1-2)Man(a1-6)]Man(b1-4)GlcNAc(b1-4)GlcNAc
# How it was run: as §1
# [20] = biological target: Neu5Ac(a2-3)Gal(b1-3)GlcNAc(b1-2)Man(a1-3)[Neu5Ac(a2-3)Gal(b1-3)GlcNAc(b1-2)Man(a1-6)]Man(b1-4)GlcNAc(b1-4)GlcNAc
# How it was run: as §1
# [21] = biological target: Neu5Ac(a2-3)Gal(b1-3)GlcNAc(b1-2)[Neu5Ac(a2-3)Gal(b1-3)GlcNAc(b1-4)]Man(a1-6)[Neu5Ac(a2-3)Gal(b1-3)GlcNAc(b1-2)Man(a1-3)]Man(b1-4)GlcNAc(b1-4)GlcNAc
# How it was run: as §1
# [22] = biological target: Neu5Ac(a2-3)Gal(b1-3)GlcNAc(b1-3)Gal(b1-3)GlcNAc
# How it was run: as §1
# [23] = biological target: Neu5Ac(a2-3)Gal(b1-3)GlcNAc(b1-3)Gal(b1-4)GlcNAc
# How it was run: as §1
# [24] = biological target: Neu5Ac(a2-3)Gal(b1-3)GlcNAc(b1-3)GalNAc
# How it was run: as §1
# [25] = biological target: Neu5Ac(a2-3)Gal(b1-3)GlcNAc(b1-6)GalNAc
# How it was run: as §1
# [26] = biological target: Neu5Ac(a2-3)Gal(b1-3)GlcNAc6S
# How it was run: as §1
# [27] = biological target: Neu5Ac(a2-3)Gal(b1-3)[Fuc(a1-4)]GlcNAc
# How it was run: as §1
# [28] = biological target: Neu5Ac(a2-3)Gal(b1-3)[Fuc(a1-4)]GlcNAc(b1-3)Gal(b1-3)[Fuc(a1-4)]GlcNAc
# How it was run: as §1
# [29] = biological target: Neu5Ac(a2-3)Gal(b1-3)[Fuc(a1-4)]GlcNAc(b1-3)Gal(b1-4)[Fuc(a1-3)]GlcNAc
# How it was run: as §1
# [30] = biological target: Neu5Ac(a2-3)Gal(b1-3)[GlcNAc(b1-6)]GalNAc
# How it was run: as §1
# [31] = biological target: Neu5Ac(a2-3)Gal(b1-3)[Neu5Ac(a2-6)]GalNAc
# How it was run: as §1
# [32] = biological target: Neu5Ac(a2-3)Gal(b1-3)[Neu5Ac(a2-6)]GlcNAc(b1-3)[Fuc(a1-3)[Gal(b1-4)]GlcNAc(b1-6)]Gal(b1-4)Glc
# How it was run: as §1
binder,measurement,setting,value
B1,glycan array binding signal (z-score),[1],1.31
same,glycan array binding signal (z-score),[2],-0.958
same,glycan array binding signal (z-score),[3],0.032
same,glycan array binding signal (z-score),[4],2.83
same,glycan array binding signal (z-score),[5],-0.952
same,glycan array binding signal (z-score),Man(a1-3)[Man(a1-6)]Man,-0.788
same,glycan array binding signal (z-score),[6],-0.98
same,glycan array binding signal (z-score),[7],-0.067
same,glycan array binding signal (z-score),[8],0.056
same,glycan array binding signal (z-score),[9],0.386
same,glycan array binding signal (z-score),[10],1.1
same,glycan array binding signal (z-score),Man(a1-6)Man,-0.681
same,glycan array binding signal (z-score),Man(b1-4)GlcNAc,1.55
same,glycan array binding signal (z-score),MurNAc(b1-4)GlcNAc,-0.58
same,glycan array binding signal (z-score),Neu5Ac(a2-3)Gal,-0.674
same,glycan array binding signal (z-score),[11],-0.87
same,glycan array binding signal (z-score),[12],0.361
same,glycan array binding signal (z-score),[13],-1.15
same,glycan array binding signal (z-score),[14],-0.286
same,glycan array binding signal (z-score),[15],-1.6
same,glycan array binding signal (z-score),[16],2.32
same,glycan array binding signal (z-score),[17],0.423
same,glycan array binding signal (z-score),[18],-1.36
same,glycan array binding signal (z-score),[19],1.07
same,glycan array binding signal (z-score),[20],0.151
same,glycan array binding signal (z-score),[21],1.46
same,glycan array binding signal (z-score),[22],-0.66
same,glycan array binding signal (z-score),[23],1.79
same,glycan array binding signal (z-score),[24],-0.63
same,glycan array binding signal (z-score),[25],-1.15
same,glycan array binding signal (z-score),[26],0.618
same,glycan array binding signal (z-score),[27],-1.34
same,glycan array binding signal (z-score),[28],-0.396
same,glycan array binding signal (z-score),[29],-0.745
same,glycan array binding signal (z-score),[30],-1.65
same,glycan array binding signal (z-score),[31],-0.134
same,glycan array binding signal (z-score),[32],-0.238

# Rewritten as tab-separated lines: part of the list above.
binder	measurement	setting	value
B1	glycan array binding signal (z-score)	[6]	-0.98
same	glycan array binding signal (z-score)	[11]	-0.87
